This assay has as its system HEK293A TEAD-LUC reporter. The experiment in a line: TEAD-luciferase reporter activity (YAP activation), robust Z score vs plate; higher = stronger YAP/TEAD activation. To be noted: 24 h. On the technique in general: A reporter such as luciferase makes a cellular process visible.

Some of the results follow. Single values are uncertain here, since repeats match poorly.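 The human kidney-derived cells carry a stably integrated construct of eight TEAD-binding elements driving luciferase, read by luminescence in a drug-repurposing library screen. A compound counts as a hit when its signal is more than five robust Z scores above the plate mean.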

`CC(C)OC(=O)C(C(=O)OC(C)C)=C1SC=CS1` [malotilate]: the TEAD-luciferase reporter activity (compound concentration: 200 nM) was inactive: 0.00115, the TEAD-luciferase reporter activity (compound concentration: 2 uM) was inactive: 0.807 and the TEAD-luciferase reporter activity (compound concentration: 10 uM) is inactive: 0.596.
For `CCCc1nc(C(F)(F)F)ccc1/C=C/C(=O)N[C@H](C)c1cc(F)c(NS(C)(=O)=O)c(F)c1`, in that order: inactive: 0.349, inactive: 1.88 and inactive: 1.91.
In the case of `C[C@@H]1C[C@H]2[C@@H]3CCC4=CC(=O)C=C[C@]4(C)[C@@]3(Cl)[C@@H](O)C[C@]2(C)[C@@]1(OC(=O)c1ccco1)C(=O)CCl` [mometasone furoate stent], the TEAD-luciferase reporter activity (compound concentration: 2 uM) is inactive: -0.0667.
For `O=C(C1CC1)N1CCC(C(=O)N2CCC(c3ccccc3)CC2)CC1`, the TEAD-luciferase reporter activity is, setting by setting: (compound concentration: 200 nM) inactive: 1.38; (compound concentration: 10 uM) inactive: -0.442.
On to `CCCC(=O)NCC(=O)N1CCCC1(C)C`, for which the TEAD-luciferase reporter activity (compound concentration: 200 nM) is inactive: -2.61, the TEAD-luciferase reporter activity (compound concentration: 2 uM) is inactive: -0.0368 and the TEAD-luciferase reporter activity (compound concentration: 10 uM) is inactive: -1.84.
As for `CNC(=O)[C@H]1O[C@@H](n2cnc3c(NCc4cccc(I)c4)nc(Cl)nc32)[C@H](O)[C@@H]1O`, the TEAD-luciferase reporter activity was inactive: -0.765 (compound concentration: 200 nM), inactive: -0.897 (compound concentration: 2 uM) and inactive: -0.373 (compound concentration: 10 uM).
For the molecule `Nc1nc(F)nc2c1ncn2C1OC(CO)C(O)C1O` (stereo not drawn), the TEAD-luciferase reporter activity is inactive: -1.53 (compound concentration: 200 nM), inactive: -1.2 (compound concentration: 2 uM) and inactive: -0.545 (compound concentration: 10 uM).
As to `CC[C@H]1OC(=O)[C@H](C)[C@@H](O[C@H]2C[C@@](C)(OC)[C@@H](O)[C@H](C)O2)[C@H](C)[C@@H](O[C@@H]2O[C@H](C)C[C@H](N(C)C)[C@H]2O)[C@](C)(OC)C[C@@H](C)C(=O)[C@H](C)[C@@H](O)[C@]1(C)O` [Clarithromycin], the TEAD-luciferase reporter activity (compound concentration: 2 uM) was inactive: -1.23.
Consider `CC[C@H]1OC(=O)[C@H](C)[C@@H](O[C@H]2C[C@@](C)(OC)[C@@H](O)[C@H](C)O2)[C@H](C)[C@@H](O[C@@H]2O[C@H](C)C[C@H](N(C)C)[C@H]2O)[C@](C)(OC)C[C@@H](C)C(=O)[C@H](C)[C@@H](O)[C@]1(C)O`, for which the TEAD-luciferase reporter activity was inactive: -0.755 (compound concentration: 200 nM) and inactive: -0.428 (compound concentration: 10 uM).
Take `CC(=O)NC(=O)c1ccccc1O`: the TEAD-luciferase reporter activity runs as follows: (compound concentration: 200 nM) inactive: -0.276; (compound concentration: 2 uM) inactive: -0.836; (compound concentration: 10 uM) inactive: -0.0611.
Turning to `Cc1ccc(S(=O)(=O)Nc2cc(C(=O)NC(C)(C)C)ccc2Oc2cc(F)c(CC(=O)O)cc2Cl)cc1`, the TEAD-luciferase reporter activity (compound concentration: 200 nM) is inactive: -0.141, the TEAD-luciferase reporter activity (compound concentration: 2 uM) is inactive: -1.56 and the TEAD-luciferase reporter activity (compound concentration: 10 uM) is inactive: -0.941.
For `O=[N+]([O-])/C=C(\NC1CCCCC1)NS(=O)(=O)c1cnccc1NC1CCCCCC1`, the TEAD-luciferase reporter activity is inactive: -1.45 (compound concentration: 200 nM), inactive: 0.119 (compound concentration: 2 uM) and inactive: 1.88 (compound concentration: 10 uM).
As to `COc1ccc(Cl)cc1C(=O)N1CCN(c2cccc(Cl)c2)CC1`, the TEAD-luciferase reporter activity (compound concentration: 200 nM) was active: 5.06, the TEAD-luciferase reporter activity (compound concentration: 2 uM) was inactive: -0.302 and the TEAD-luciferase reporter activity (compound concentration: 10 uM) is inactive: 1.41.
Consider `CSc1ccc(-c2nn(Cc3ccccc3)c(=O)cc2-c2ccc(Cl)cc2)cc1`, for which the TEAD-luciferase reporter activity by setting is: (compound concentration: 200 nM) inactive: -1.58; (compound concentration: 2 uM) inactive: -1.1; (compound concentration: 10 uM) inactive: 0.422.
Consider `C[C@@H](CN(c1ccccc1)S(=O)(=O)Cc1ccccc1)N1CCC(NC(=O)Cc2ccc(C#N)cc2)CC1`, for which the TEAD-luciferase reporter activity is, setting by setting: (compound concentration: 200 nM) inactive: 0.236; (compound concentration: 2 uM) inactive: -1.12; (compound concentration: 10 uM) inactive: 1.3.
In the case of `N#Cc1ccc(C(c2ccc(C#N)cc2)n2cncn2)cc1`, the TEAD-luciferase reporter activity is inactive: 0.353 (compound concentration: 200 nM) and inactive: -0.561 (compound concentration: 10 uM).
`N#Cc1ccc(C(c2ccc(C#N)cc2)n2cncn2)cc1` [letrozole]: the TEAD-luciferase reporter activity (compound concentration: 2 uM) is inactive: -1.08.
Regarding `O=C(O)Cc1cccc(-c2cc(CCCCCCc3ccc(O[C@H]4O[C@H](CO)[C@@H](O)[C@H](O)[C@@H]4O)c(-c4cccc(CC(=O)O)c4)c3)ccc2O[C@H]2O[C@H](CO)[C@@H](O)[C@H](O)[C@@H]2O)c1` [bimosiamose], the TEAD-luciferase reporter activity (compound concentration: 200 nM) is inactive: -1.46, the TEAD-luciferase reporter activity (compound concentration: 2 uM) was inactive: -0.457 and the TEAD-luciferase reporter activity (compound concentration: 10 uM) is inactive: 0.721.
`CSc1ncnc2c1ncn2[C@@H]1O[C@H](CO)[C@@H](O)[C@H]1O`: the TEAD-luciferase reporter activity runs as follows: (compound concentration: 200 nM) inactive: -1.22; (compound concentration: 2 uM) inactive: -1.8; (compound concentration: 10 uM) inactive: -1.92.
Take `CCN(CCCN(C)c1nc(-n2ccnc2)ns1)Cc1ccc2c(c1)OCO2`: the TEAD-luciferase reporter activity was inactive: -0.863 (compound concentration: 200 nM), inactive: -1.16 (compound concentration: 2 uM) and inactive: 0.888 (compound concentration: 10 uM).
Consider `O=S(c1cc(Cl)cc(Cl)c1O)c1cc(Cl)cc(Cl)c1O`, for which the TEAD-luciferase reporter activity (compound concentration: 2 uM) is inactive: -1.79.
On to `O=S(c1cc(Cl)cc(Cl)c1O)c1cc(Cl)cc(Cl)c1O` [Bithionol sulfoxide], for which the TEAD-luciferase reporter activity is inactive: -0.869 (compound concentration: 200 nM) and inactive: 0.0813 (compound concentration: 10 uM).
For the molecule `CC[C@H](C)[C@H](N)C(=O)N[C@@H](CCC(=O)O)C(=O)N[C@@H](Cc1c[nH]c2ccccc12)C(=O)O` [Neogen], the TEAD-luciferase reporter activity runs as follows: (compound concentration: 200 nM) inactive: -0.522; (compound concentration: 2 uM) inactive: 0.957; (compound concentration: 10 uM) inactive: 0.132.
`C/C(=C\c1ccc(Cc2cccnc2)cc1)C(=O)O`: the TEAD-luciferase reporter activity was inactive: 0.0958 (compound concentration: 200 nM), inactive: -0.559 (compound concentration: 2 uM) and inactive: -1.2 (compound concentration: 10 uM).
In the case of `O=C(O)CCNC(=O)[C@H](Cc1ccccc1)N[C@@H](Cc1ccccc1)C(=O)O`, the TEAD-luciferase reporter activity runs as follows: (compound concentration: 200 nM) inactive: 0.0131; (compound concentration: 2 uM) inactive: -0.334; (compound concentration: 10 uM) inactive: -1.22.

These data come from the supplement of paper PMC10735217.
